Measurements reported in doi:10.1101/2025.02.01.636027.

Target: T1, TARANI/UBIQUITIN SPECIFIC PROTEASE-14 with a C-terminal Myc tag (RPS5a::TNI-Myc) (Arabidopsis thaliana) (UniProt Q8L6Y1)
T1 sequence: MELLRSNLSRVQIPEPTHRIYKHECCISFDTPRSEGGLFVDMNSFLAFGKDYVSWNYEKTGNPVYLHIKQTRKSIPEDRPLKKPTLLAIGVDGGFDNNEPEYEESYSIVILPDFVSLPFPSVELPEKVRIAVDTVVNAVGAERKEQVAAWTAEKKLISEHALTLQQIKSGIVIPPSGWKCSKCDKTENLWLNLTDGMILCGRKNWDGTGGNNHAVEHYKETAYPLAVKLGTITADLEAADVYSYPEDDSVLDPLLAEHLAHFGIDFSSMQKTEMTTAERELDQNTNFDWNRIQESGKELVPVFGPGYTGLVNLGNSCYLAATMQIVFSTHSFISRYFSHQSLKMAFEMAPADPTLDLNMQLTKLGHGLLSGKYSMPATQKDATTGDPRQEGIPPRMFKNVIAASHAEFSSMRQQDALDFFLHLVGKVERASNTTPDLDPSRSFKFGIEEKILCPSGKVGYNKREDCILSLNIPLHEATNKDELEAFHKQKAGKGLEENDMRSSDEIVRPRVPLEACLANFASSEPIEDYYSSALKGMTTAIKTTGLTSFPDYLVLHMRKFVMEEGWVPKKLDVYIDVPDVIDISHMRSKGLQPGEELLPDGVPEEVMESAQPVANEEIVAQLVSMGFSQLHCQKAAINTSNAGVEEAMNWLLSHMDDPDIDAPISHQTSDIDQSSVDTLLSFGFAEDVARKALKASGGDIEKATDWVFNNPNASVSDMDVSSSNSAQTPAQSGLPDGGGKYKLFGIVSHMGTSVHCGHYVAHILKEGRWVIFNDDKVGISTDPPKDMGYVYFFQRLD
Assay: affinity purification with mass spectrometry

binding: binds
B1: HASPIN KINASE (enzyme, UniProt O80528 1-599)
chain: MGQRVDLWSEVIKSEEEDGDIPKIEAVFQRRKKPDKSSEAVNFGWLVKGARTSSVNGPKRDSWARSLSTRGRESIAVRAYVNNQPQKKAAGRKKPPIPKGKVVKAPDFQKEKEYFRDIDAFELLEESPSPNKSSTWTMGEQVVPEMPHLSTRLEKWLISKKLNHTCGPSSTLSKILENSAIHQESVCDNDAFDSLSLKTPDKSSAGNTSVFRLIPSCDENLAAEDVPVRKIKMESIDLEDELKRLSLTSDLIPTHQDFDQPILDLLSACGQMRPSNFIEAFSKFCEPESIVKIGEGTYGEAFRAGSSVCKIVPIDGDFRVNGEVQKRADELLEEVILSWTLNQLRECETTAQNLCPTYIKTQDIKLCQGPYDPILIKAWEEWDAKHGSENDHPDFPEKQCYVMFVLEHGGKDLESFVLLNFDEARSLLVQATAGLAVAEAAFEFEHRDLHWGNILLSRNNSDTLPFILEGKQVCIKTFGVQISIIDFTLSRINTGEKILFLDLTSDPYLFKGPKGDKQSETYRKMKAVTEDYWEGSFARTNVLWLIYLVDILLTKKSFERSSKHERELRSLKKRMEKYESAKEAVSDPFFSDMLMDQIS

No constants are given. Whether binding was seen depends on the method and setting. Binding seen in cells or lysates may run through a third protein. These calls come from enrichment with a bait or labelling near it, and not all partners need be listed. Sequences can lack the tags named with a protein.
